Measurements taken from patent US9492472B2, “Compositions and methods of treating cancer” (Case Western Reserve University, priority 2009, dated 2016).
Values joined by “and” are separate entries in the source; they are usually repeats but may differ in a detail not shown here. Identical values can stand only once. “Also recorded” adds a separate entry of the source. Not every detail of the peptide structures is certain; ends, links or a residue may be inferred. Peptide text beside a SMILES is read from it.

Chains of the proteins cited; added tags and fusions are not shown. Residues count along the entry.
UniProt P21333, 2-2647 limits assumed: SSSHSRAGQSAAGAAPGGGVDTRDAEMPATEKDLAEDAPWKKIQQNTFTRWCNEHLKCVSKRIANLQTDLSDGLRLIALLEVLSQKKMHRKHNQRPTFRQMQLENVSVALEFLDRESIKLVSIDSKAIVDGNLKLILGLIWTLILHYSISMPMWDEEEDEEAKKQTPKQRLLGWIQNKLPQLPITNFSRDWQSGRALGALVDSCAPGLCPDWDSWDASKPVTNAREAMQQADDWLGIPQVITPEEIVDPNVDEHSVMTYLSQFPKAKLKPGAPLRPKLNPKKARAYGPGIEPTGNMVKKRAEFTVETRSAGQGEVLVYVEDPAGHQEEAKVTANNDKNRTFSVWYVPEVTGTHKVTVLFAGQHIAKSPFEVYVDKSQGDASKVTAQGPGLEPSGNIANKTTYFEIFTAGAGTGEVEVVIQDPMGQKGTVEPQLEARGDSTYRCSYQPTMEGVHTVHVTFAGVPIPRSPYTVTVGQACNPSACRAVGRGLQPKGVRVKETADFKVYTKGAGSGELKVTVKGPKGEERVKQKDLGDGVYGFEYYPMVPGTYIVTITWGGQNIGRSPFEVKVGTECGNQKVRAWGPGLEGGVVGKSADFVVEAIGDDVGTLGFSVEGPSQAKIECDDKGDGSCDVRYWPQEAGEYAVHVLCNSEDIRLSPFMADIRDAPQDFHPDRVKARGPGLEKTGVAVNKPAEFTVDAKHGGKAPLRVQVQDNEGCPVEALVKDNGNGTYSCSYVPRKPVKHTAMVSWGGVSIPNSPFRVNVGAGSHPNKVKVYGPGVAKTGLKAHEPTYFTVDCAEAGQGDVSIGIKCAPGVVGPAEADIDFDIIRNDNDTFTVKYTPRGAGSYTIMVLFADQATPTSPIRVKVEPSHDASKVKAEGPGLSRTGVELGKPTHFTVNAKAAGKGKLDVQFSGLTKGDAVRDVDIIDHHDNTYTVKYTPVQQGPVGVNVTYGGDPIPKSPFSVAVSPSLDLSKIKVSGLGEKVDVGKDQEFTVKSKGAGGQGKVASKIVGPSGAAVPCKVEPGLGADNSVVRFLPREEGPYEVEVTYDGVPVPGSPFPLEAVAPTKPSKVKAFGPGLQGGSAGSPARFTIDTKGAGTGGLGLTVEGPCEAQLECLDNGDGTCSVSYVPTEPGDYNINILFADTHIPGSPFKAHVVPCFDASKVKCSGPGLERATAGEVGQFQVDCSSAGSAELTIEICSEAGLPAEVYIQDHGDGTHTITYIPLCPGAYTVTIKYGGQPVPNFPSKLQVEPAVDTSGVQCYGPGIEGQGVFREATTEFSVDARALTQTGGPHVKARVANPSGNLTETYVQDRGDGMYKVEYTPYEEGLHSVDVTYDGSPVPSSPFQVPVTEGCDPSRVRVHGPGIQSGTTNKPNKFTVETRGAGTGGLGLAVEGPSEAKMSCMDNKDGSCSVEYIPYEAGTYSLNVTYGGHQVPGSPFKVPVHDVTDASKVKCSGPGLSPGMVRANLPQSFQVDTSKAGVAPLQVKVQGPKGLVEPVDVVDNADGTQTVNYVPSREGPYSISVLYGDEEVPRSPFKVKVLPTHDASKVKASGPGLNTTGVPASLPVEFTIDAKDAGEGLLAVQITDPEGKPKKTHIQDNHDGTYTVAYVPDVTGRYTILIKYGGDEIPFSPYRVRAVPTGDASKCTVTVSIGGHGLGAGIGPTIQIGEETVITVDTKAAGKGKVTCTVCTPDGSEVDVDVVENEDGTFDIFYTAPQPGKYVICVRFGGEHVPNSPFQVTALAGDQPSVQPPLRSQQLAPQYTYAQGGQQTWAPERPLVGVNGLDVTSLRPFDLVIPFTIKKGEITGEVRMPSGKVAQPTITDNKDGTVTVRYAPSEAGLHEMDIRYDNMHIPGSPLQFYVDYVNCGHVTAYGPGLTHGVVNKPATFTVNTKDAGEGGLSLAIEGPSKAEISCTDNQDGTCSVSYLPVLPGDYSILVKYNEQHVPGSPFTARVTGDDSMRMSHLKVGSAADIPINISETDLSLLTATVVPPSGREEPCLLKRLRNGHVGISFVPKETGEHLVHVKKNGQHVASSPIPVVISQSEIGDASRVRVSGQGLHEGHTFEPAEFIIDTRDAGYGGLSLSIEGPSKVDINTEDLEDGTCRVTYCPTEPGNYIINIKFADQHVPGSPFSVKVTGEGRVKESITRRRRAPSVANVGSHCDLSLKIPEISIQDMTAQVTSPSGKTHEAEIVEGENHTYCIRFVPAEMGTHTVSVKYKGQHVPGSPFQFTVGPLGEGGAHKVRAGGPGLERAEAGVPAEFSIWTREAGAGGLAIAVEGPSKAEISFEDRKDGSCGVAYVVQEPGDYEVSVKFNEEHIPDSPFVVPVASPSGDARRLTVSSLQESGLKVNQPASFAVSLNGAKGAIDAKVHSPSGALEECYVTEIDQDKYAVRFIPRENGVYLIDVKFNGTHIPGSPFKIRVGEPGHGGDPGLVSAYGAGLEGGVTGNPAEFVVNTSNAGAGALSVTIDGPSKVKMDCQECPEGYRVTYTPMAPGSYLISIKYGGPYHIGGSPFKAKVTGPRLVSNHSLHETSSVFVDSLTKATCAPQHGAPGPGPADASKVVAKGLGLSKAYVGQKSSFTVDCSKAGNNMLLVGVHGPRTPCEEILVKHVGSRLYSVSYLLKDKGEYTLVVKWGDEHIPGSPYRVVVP

Columns and labels:
[1] = molecular target: binding of FLNa to pro-PrP (Homo sapiens, UniProt P21333)
A7 cells [2] = type: cell-based, human
A7 cells [3] = type: cell-based, human; remark: listed apart in the source

Structure (SMILES): CC[C@H](C)[C@H](NC(=O)[C@H](CC(C)C)NC(=O)[C@H](Cc1ccccc1)NC(=O)[C@H](CO)NC(=O)[C@@H](NC(=O)[C@H](CC(C)C)NC(=O)[C@H](CC(C)C)NC(=O)[C@@H](NC(=O)[C@@H](NC(=O)[C@@H]1CCCN1C(=O)[C@@H]1CCCN1C(=O)[C@H](CCCCN)NC(=O)[C@@H]1CCCN1C(=O)[C@H](CCCNC(=N)N)NC(=O)[C@H](CCCCN)NC(=O)[C@@H](N)CCCCN)C(C)C)[C@@H](C)CC)[C@@H](C)CC)C(=O)N[C@@H](Cc1ccccc1)C(=O)N[C@@H](CC(C)C)C(=O)N[C@H](C(=O)N[C@H](C(=O)NCC(=O)O)C(C)C)[C@@H](C)CC [KKRPK-PrP-GPI-PSS] (H-KKRPKPPVILLISFLIFLIVG-OH)
- co-purification of PrP and FLNa competed/inhibited by peptide [1]: is inhibited; also recorded: can be competed
- effect on cell migration / motility (A7 cells [2]): significantly reduced; also recorded: reduces cellular migration
- inhibition of cellular motility (A7 cells [2]): significant inhibition
- inhibition of migration / cellular motility (A7 cells [2]): 50-60% and 50 to 60%
- effect on cell spreading (A7 cells [3]): significantly reduced; also recorded: reduces
